Laboratory results: PMC5016092
No constants are given. Whether binding was seen depends on the method and setting. For part of these data: In cells and extracts the contact can be indirect. Some binding calls cover weakened binding; strength is not graded here. Tags and fused reporters may be left off the sequences shown. Each block holds one binder with its values, some of them ahead of it.

Legend:
hTim10b^3XFLAG (human) [1] = target: T1, hTim10b^3XFLAG (human) (UniProt Q9Y5J6); assay: native gel or EMSA; antibody shift: [35S]-hTim22 imported at 37°C into isolated mitochondria, solubilised in 1% digitonin, incubated with anti-FLAG or anti-SDHA antibodies 30 min on ice, BN-PAGE and autoradiography
T1 sequence: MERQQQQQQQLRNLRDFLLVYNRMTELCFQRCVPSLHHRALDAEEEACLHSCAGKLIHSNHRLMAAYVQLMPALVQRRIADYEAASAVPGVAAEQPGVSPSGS

hTim10b^3XFLAG (human) [2] = target: T1, hTim10b^3XFLAG (human); assay: cross-linking; isolated mitochondria with 0.2 mM DSP 1 hr 4°C, quenched with Tris, solubilised in 1% SDS and boiled, diluted in Triton X-100 buffer, anti-FLAG resin, cross-links cleaved in Laemmli buffer, immunoblotting

binding (hTim10b^3XFLAG (human) [1]): binds
B1: [^35S]-hTim22 (protein, UniProt Q9Y584 1-194)
chain: MAAAAPNAGGSAPETAGSAEAPLQYSLLLQYLVGDKRQPRLLEPGSLGGIPSPAKSEEQKMIEKAMESCAFKAALACVGGFVLGGAFGVFTAGIDTNVGFDPKDPYRTPTAKEVLKDMGQRGMSYAKNFAIVGAMFSCTECLIESYRGTSDWKNSVISGCITGGAIGFRAGLKAGAIGCGGFAAFSAAIDYYLR
modifications: [35S]-methionine/cysteine label

binding (hTim10b^3XFLAG (human) [2]): binds
B2: hTim9 (protein, UniProt Q9Y5J7 1-89)
chain: MAAQIPESDQIKQFKEFLGTYNKLTETCFLDCVKDFTTREVKPEETTCSEHCLQKYLKMTQRISMRFQEYHIQQNEALAAKAGLLGQPR

binding (hTim10b^3XFLAG (human) [2]): no binding
B3: hTom40 (protein, UniProt O96008 1-361)
chain: MGNVLAASSPPAGPPPPPAPALVGLPPPPPSPPGFTLPPLGGSLGAGTSTSRSSERTPGAATASASGAAEDGACGCLPNPGTFEECHRKCKELFPIQMEGVKLTVNKGLSNHFQVNHTVALSTIGESNYHFGVTYVGTKQLSPTEAFPVLVGDMDNSGSLNAQVIHQLGPGLRSKMAIQTQQSKFVNWQVDGEYRGSDFTAAVTLGNPDVLVGSGILVAHYLQSITPCLALGGELVYHRRPGEEGTVMSLAGKYTLNNWLATVTLGQAGMHATYYHKASDQLQVGVEFEASTRMQDTSVSFGYQLDLPKANLLFKGSVDSNWIVGATLEKKLPPLPLTLALGAFLNHRKNKFQCGFGLTIG
